This series relates to three-dimensional hepatic tissue consisting only of human hepatocytes (PXB cells). The series is described as follows: ATP assay (CellTiter Glo 3D) viability after exposure to hepatotoxicity-inducing compounds, Test Example 6 Condition 1. It counts as cell-based. As to conditions: Condition 1 (present tissue) versus Condition 2 (spheroid); IC50 half or less in Condition 1. On the procedure:
The resulting mixture was centrifuged at room temperature at 400×g for 2 minutes, the supernatant was removed, and the cells were resuspended in an HCM (product number “CC-3198”, manufactured by Lonza) containing 10 U/mL thrombin (product number “R4648”, manufactured by Sigma-Aldrich) and 1 v/v % endothelial cell growth supplement (ECGS) (product number “1052”, manufactured by Sciencell) to a cell density of 1.95×10^4 cells/2 μL to obtain a cell suspension.
2 μL of an HCM containing 5 mg/mL fibrinogen and 1 v/v % ECGS was added to a 48-well microplate (product number “3830-048”, manufactured by AGC Techno Glass) to form a droplet. The cell suspension was added to the interior of each droplet, and the 48-well microplate was then left to stand in an incubator for 40 minutes to form a fibrin gel in which the human hepatocytes were embedded. 0.5 mL of HCM containing 1 v/v % ECGS was added to each well in which the fibrin gel had been formed, and the cells were cultured under the conditions of 37° C. and 5% CO2. After the start of the culture, the medium was changed every two days.
In general terms: In ATP-based viability assays light output follows the ATP content of the culture.

Structures are written as SMILES.

Turning to `CS(=O)(=O)CCNCc1ccc(-c2ccc3ncnc(Nc4ccc(OCc5cccc(F)c5)c(Cl)c4)c3c2)o1` [Lapatinib], the “Compounds with 2-fold or greater difference in IC50 value” was “Yes”. Then `CS(=O)(=O)Nc1ccc([N+](=O)[O-])cc1Oc1ccccc1` [Nimesulide], with “Yes”.

Values taken from patent publication US20250368962A1, “THREE-DIMENSIONAL HEPATIC TISSUE AND METHOD OF MANUFACTURING THE SAME” (TOPPAN HOLDINGS INC., priority 2023, published 2025).
